Record: PubChem BioAssay AID504808 (Drosophila RNAi Screening Center, 2011)

- Aim: 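Fly genes required to hold E2F transcription in check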 (primary screen)
- Cells: Drosophila S2 cells
- Reagent: long dsRNA against Drosophila genes
- Read-out: 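Dual luciferase plate measurements; E2F-specific signal taken as firefly over Renilla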
- Scale: E2F firefly: higher = more E2F reporter activity; Renilla normaliser: higher = more normaliser reporter signal
- Hit rule: 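a knock-down counted as active when the firefly/Renilla E2F signal rose above 50%, a threshold chosen arbitrarily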
The screen tested about 21,000 reagents; below is an unselected part of those with a known target gene and a result. Of all reagents, 18 (0.084%) were called active. 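Raw counts without plate normalisation, one of two replicates; the ratio scores behind the calls were not deposited.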 The record does not give: the amount of reagent, the time to read-out.

Depletion of ChAT (Choline acetyltransferase) [DRSC13314] gave: E2F firefly, rep 1 = 79634; Renilla normaliser, rep 1 = 2125; inactive.
Against ChAT (Choline acetyltransferase) [DRSC16609] the deposit lists E2F firefly, rep 1 = 1.38e5; Renilla normaliser, rep 1 = 7848; inactive.
With knock-down of CG10505 [DRSC04075] the results were E2F firefly, rep 1 = 1.09e5; Renilla normaliser, rep 1 = 3828; inactive.
With knock-down of CG10550 [DRSC14251] the results were E2F firefly, rep 1 = 1899; Renilla normaliser, rep 1 = 1000; inactive.
For casp (caspar) [DRSC07164], the values are E2F firefly, rep 1 = 67018; Renilla normaliser, rep 1 = 3573; inactive.
Knock-down of CG17380 [DRSC15230] came out at: E2F firefly, rep 1 = 1.10e5; Renilla normaliser, rep 1 = 5500; inactive.
After knock-down of CG14573 [DRSC11734] the results were E2F firefly, rep 1 = 1.58e5; Renilla normaliser, rep 1 = 7551; inactive.
Depletion of RpL4 (Ribosomal protein L4) [DRSC16833] came out at: E2F firefly, rep 1 = 1325; Renilla normaliser, rep 1 = 1044; inactive.
CG17145 [DRSC10247] gave E2F firefly, rep 1 = 1.27e5; Renilla normaliser, rep 1 = 6245; inactive.
For Atg9 (Autophagy-related 9) [DRSC06848] the deposit lists E2F firefly, rep 1 = 81616; Renilla normaliser, rep 1 = 3480; inactive.
NaPi-III (Na[+]-dependent inorganic phosphate cotransporter type III) [DRSC10893] showed E2F firefly, rep 1 = 81896; Renilla normaliser, rep 1 = 3508; inactive.
Knock-down of NaPi-III (Na[+]-dependent inorganic phosphate cotransporter type III) [DRSC10894] came out at: E2F firefly, rep 1 = 79832; Renilla normaliser, rep 1 = 4624; inactive.
Against Obp18a (Odorant-binding protein 18a) [DRSC19736], the entry reads E2F firefly, rep 1 = 1.17e5; Renilla normaliser, rep 1 = 6265; inactive.
E(var)3-9 (Enhancer of variegation 3-9) [DRSC14451] scored E2F firefly, rep 1 = 1.42e5; Renilla normaliser, rep 1 = 6700; inactive.
Depletion of CG32712 [DRSC17820] resulted in: E2F firefly, rep 1 = 6919; Renilla normaliser, rep 1 = 880; inactive.
Against CG5024 [DRSC15698], the entry reads E2F firefly, rep 1 = 1.02e5; Renilla normaliser, rep 1 = 5473; inactive.
Against CG13310 [DRSC09981], the values are E2F firefly, rep 1 = 99550; Renilla normaliser, rep 1 = 4010; inactive.
Knock-down of CG11226 [DRSC11639] came out at: E2F firefly, rep 1 = 1.42e5; Renilla normaliser, rep 1 = 6915; inactive.
After knock-down of CG11638 [DRSC18167], the screen gave E2F firefly, rep 1 = 1.23e5; Renilla normaliser, rep 1 = 6910; inactive.
After knock-down of CG11638 [DRSC18640], the screen gave E2F firefly, rep 1 = 1.23e5; Renilla normaliser, rep 1 = 6340; inactive.
CG3062 [DRSC18572] showed E2F firefly, rep 1 = 44228; Renilla normaliser, rep 1 = 3259; inactive.
With knock-down of Mgtor (Megator) [DRSC05958], the screen gave E2F firefly, rep 1 = 3323; Renilla normaliser, rep 1 = 185; inactive.
CG13875 [DRSC08345] scored E2F firefly, rep 1 = 98226; Renilla normaliser, rep 1 = 4425; inactive.
eEF2 (eukaryotic translation elongation factor 2) [DRSC03737] gave E2F firefly, rep 1 = 99316; Renilla normaliser, rep 1 = 4716; inactive.
For CG4332 [DRSC19890], the values are E2F firefly, rep 1 = 8745; Renilla normaliser, rep 1 = 808; inactive.
With knock-down of tup (tailup) [DRSC03627], the record shows E2F firefly, rep 1 = 82915; Renilla normaliser, rep 1 = 4197; inactive.
Fem-1 [DRSC07322] gave E2F firefly, rep 1 = 85376; Renilla normaliser, rep 1 = 4133; inactive.
CG32305 [DRSC08614] gave E2F firefly, rep 1 = 1.02e5; Renilla normaliser, rep 1 = 4489; inactive.
Depletion of ase (asense) [DRSC18739] came out at: E2F firefly, rep 1 = 55578; Renilla normaliser, rep 1 = 3696; inactive.
With knock-down of Jon99Ciii (Jonah 99Ciii) [DRSC16859], the record shows E2F firefly, rep 1 = 79052; Renilla normaliser, rep 1 = 6337; inactive.
For CG12121 [DRSC17816], the entry reads E2F firefly, rep 1 = 1.16e5; Renilla normaliser, rep 1 = 5756; inactive.
With knock-down of CycK (Cyclin K) [DRSC03714], the screen gave E2F firefly, rep 1 = 67678; Renilla normaliser, rep 1 = 3413; inactive.
Against CG17242 [DRSC00493], the values are E2F firefly, rep 1 = 1.59e5; Renilla normaliser, rep 1 = 5744; inactive.
Knock-down of CG15530 [DRSC15067] gave: E2F firefly, rep 1 = 1.26e5; Renilla normaliser, rep 1 = 6715; inactive.
CG32459 [DRSC11852] showed E2F firefly, rep 1 = 1.50e5; Renilla normaliser, rep 1 = 7604; inactive.
For CG32793 [DRSC18145] the deposit lists E2F firefly, rep 1 = 1.19e5; Renilla normaliser, rep 1 = 6031; inactive.
After knock-down of CG32793 [DRSC18194] the results were E2F firefly, rep 1 = 1.09e5; Renilla normaliser, rep 1 = 6166; inactive.

3 entries from above in another layout.
{"Target gene":"CG10505","dsRNA":"DRSC04075","E2F firefly, rep 1":1.09e5,"Renilla normaliser, rep 1":3828,"outcome":"inactive"}
{"Target gene":"CG10550","dsRNA":"DRSC14251","E2F firefly, rep 1":1899,"Renilla normaliser, rep 1":1000,"outcome":"inactive"}
{"Target gene":"casp (caspar)","dsRNA":"DRSC07164","E2F firefly, rep 1":67018,"Renilla normaliser, rep 1":3573,"outcome":"inactive"}
